# Measurements as given in PubChem BioAssay AID624291 (National Center for Advancing Translational Sciences (NCATS), 2012).
# Hit rate of the full screen: of about 350,000 compounds, about 220 (0.063%) were called active. The shares of active, inactive and inconclusive entries below differ from those in the screen. The call rests on the fitted dose curve; in most records, active means well fitted activation curve with a large enough effect; inconclusive means small, poorly fitted or top-dose-only effect; inactive means no such curve, though single readings can be large or run the other way. A potency beside an inconclusive call is a rough fit, not a confirmed value.
# Test: qHTS for Activators of Integrin-Mediated Alleviation for Muscular Dystrophy; further: nearly all actives have a fitted effect of over 60% in size;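 on activation: 100% = response of the positive control SU9516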
# Conditions: alpha7betagal myoblasts, beta-gal FDG fluorescence, 48 h; activation: at 38.3 µM (top of the series)
# In short: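 Alpha7betagal+/- myoblasts (passage 13) were plated 16-24 hr, then exposed to compounds (1:260 dilution of DMSO stock) for 48 hours at 37C. After MPER lysis, β-galactosidase reporter activity was read as FDG fluorescence (ex 480/em 540) after 30 minutes.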
# Potency means the concentration at half of the fitted maximal effect.
Structure (SMILES),Potency,activation
COCCn1c(-c2cc(OC)c(OC)c(OC)c2)nc2oc3cc(OC)ccc3c(=O)c2c1=O,"inconclusive: 14.1 µM [activator, single point]",
S=c1[nH]nc(-c2ccc(Cl)cc2Cl)n1-c1ccccc1,"inconclusive: 28.2 µM [activator, single point]",
C=CC[C@H]1C=C[C@@H](C(C(=O)OC)C(=O)OC)CN1C(C)=O,inactive,
S=C(c1cccs1)N1CCCC1,inactive,
CC(=O)NC1C(=O)N=C(SCC(=O)Nc2sc3c(c2C#N)CCCCCC3)NC1=O (centres undefined),"inconclusive: 14.1 µM [activator, single point]",
CCCC1(C(=O)OC)NC(c2ccco2)C2C(=O)N(C)C(=O)C21 (centres undefined),"inconclusive: 4.47 µM [activator, single point]",
CCC(Oc1ccccc1)C(=O)Nc1ccc(S(=O)(=O)Nc2ncccn2)cc1 (centres undefined),inactive,
N/C(=N\OC(=O)Cc1cccs1)c1ccc(Cl)cc1,"inconclusive: 5.01 µM [activator, single point]",
CCCC(=O)Nc1sc(C)c(-c2ccc(C(C)CC)cc2)c1C#N (centres undefined),inactive,
CC[N+]1=C(C)C(C)(C)c2cc(C)ccc21,,inconclusive: -53.5% [activator]
CC1(C)N=C(N)NC(Nc2ccc(Cl)cc2)=N1,"inconclusive: 28.2 µM [activator, single point]",
CCOC(=O)c1sc(NC(=O)CN2C(=O)NC3(CCCCCCC3)C2=O)c(C(=O)OCC)c1C,"inconclusive: 5.01 µM [activator, single point]",
O=c1[nH]cnc2sc3c(c12)CCC3,,inconclusive: 53.5% [activator]
O=C(Nc1ccc(N2CCN(C(=O)c3ccccc3)CC2)cc1)c1cccs1,inactive,
CCOC(=O)[C@H]1[C@H]2COc3ccc(C)cc3[C@@H]2N2C(=O)c3cc(F)c(F)cc3NC(=O)[C@@]12C,inactive,
Cc1cc(C(=S)N2CCOCC2)c(C)n1-c1ccc(F)cc1,"inconclusive: 0.501 µM [activator, partial curve, poor fit]",
COC(=O)c1c(C)[nH]c(C(=O)OCC(=O)c2ccc(C)s2)c1C,inactive,
COC(=O)c1cc(N=Nc2c(C)[nH]c3ccccc23)cc(C(=O)OC)c1,inactive,
COc1ccc(NC(=O)OC(CN2CCCCC2)C(F)(F)F)cc1 (centres undefined),"inconclusive: 20 µM [activator, single point]",
O=C(NCc1ccccn1)c1cc(Cl)ccc1OCc1ccccc1,inactive,
CCCCN(C(=O)c1ccc(N2CCCC2=O)cc1)c1c(N)n(Cc2ccccc2)c(=O)[nH]c1=O,"inconclusive: 8.91 µM [activator, partial curve, poor fit]",
CC(=O)c1ccc(NC(=O)CSc2nccn2C)cc1,"inconclusive: 1.58 µM [activator, partial curve, poor fit]",
Cc1ccc(OCC(=O)NCCNC(=O)c2cnccn2)cc1C,"inconclusive: 1.41 µM [activator, partial curve, poor fit]",
C=CCN=C1CC(C)(C)CC(=O)/C1=C(\O)CCCN1C(=O)c2ccccc2C1=O,"inconclusive: 7.08 µM [activator, partial curve, poor fit]",
COc1ccc(N2CCC(CNC(=O)Nc3ccc(OC)cc3OC)C2)cc1 (centres undefined),"inconclusive: 2.82 µM [activator, partial curve, poor fit]",

# No new results follow: entries from further up.
Structure (SMILES),Potency,activation
CCC(Oc1ccccc1)C(=O)Nc1ccc(S(=O)(=O)Nc2ncccn2)cc1 (centres undefined),inactive,
N/C(=N\OC(=O)Cc1cccs1)c1ccc(Cl)cc1,"inconclusive: 5.01 µM [activator, single point]",
CCCC(=O)Nc1sc(C)c(-c2ccc(C(C)CC)cc2)c1C#N (centres undefined),inactive,
CC[N+]1=C(C)C(C)(C)c2cc(C)ccc21,,inconclusive: -53.5% [activator]
CC1(C)N=C(N)NC(Nc2ccc(Cl)cc2)=N1,"inconclusive: 28.2 µM [activator, single point]",
CCOC(=O)c1sc(NC(=O)CN2C(=O)NC3(CCCCCCC3)C2=O)c(C(=O)OCC)c1C,"inconclusive: 5.01 µM [activator, single point]",
O=c1[nH]cnc2sc3c(c12)CCC3,,inconclusive: 53.5% [activator]
O=C(Nc1ccc(N2CCN(C(=O)c3ccccc3)CC2)cc1)c1cccs1,inactive,
CCOC(=O)[C@H]1[C@H]2COc3ccc(C)cc3[C@@H]2N2C(=O)c3cc(F)c(F)cc3NC(=O)[C@@]12C,inactive,
Cc1cc(C(=S)N2CCOCC2)c(C)n1-c1ccc(F)cc1,"inconclusive: 0.501 µM [activator, partial curve, poor fit]",
COC(=O)c1c(C)[nH]c(C(=O)OCC(=O)c2ccc(C)s2)c1C,inactive,
COC(=O)c1cc(N=Nc2c(C)[nH]c3ccccc23)cc(C(=O)OC)c1,inactive,
COc1ccc(NC(=O)OC(CN2CCCCC2)C(F)(F)F)cc1 (centres undefined),"inconclusive: 20 µM [activator, single point]",
O=C(NCc1ccccn1)c1cc(Cl)ccc1OCc1ccccc1,inactive,
CCCCN(C(=O)c1ccc(N2CCCC2=O)cc1)c1c(N)n(Cc2ccccc2)c(=O)[nH]c1=O,"inconclusive: 8.91 µM [activator, partial curve, poor fit]",

# (next part)

Structure (SMILES),Potency,activation
CCCc1cc(C(=O)N2CCCC(Cc3cccc(Cl)c3)(C(=O)OCC)C2)n(C)n1 (centres undefined),inactive,
COc1ccc(-c2cc(C(=O)NC3CC3)c3ccccc3n2)cc1,"inconclusive: 3.16 µM [activator, single point]",
COc1cc(/C=N/NC(=S)NCCN2CCOCC2)cc(OC)c1O,"inconclusive: 2.51 µM [activator, full curve, poor fit]",
COc1ccc(-c2nn(-c3ccccc3)cc2C(=O)O)cc1,inactive,
COc1ccc(C(=O)Sc2nncc3ccccc23)cc1,"inconclusive: 3.16 µM [activator, single point]",
O=C(CSc1nc(-c2ccccc2)nc2ccccc12)Nc1nccs1,inactive,
COc1ccccc1/C=C1/C(=O)ON=C1C,"inconclusive: 2.82 µM [activator, single point]",
COc1cc(OC)cc(-c2nnc(NC(=O)CCS(=O)(=O)c3ccc(F)cc3)o2)c1,inactive,
Cn1c(SCC(=O)Nc2ccccc2Cl)nnc1C1CC1,"inconclusive: 11.2 µM [activator, partial curve, poor fit]",
Cc1cnc(NC(=O)C2COc3ccccc3O2)s1 (centres undefined),inactive,
CCn1c(SCC(=O)NNC(=O)c2ccco2)nnc1-c1ccco1,"inconclusive: 14.1 µM [activator, partial curve, poor fit]",
O=c1[nH]c(SCc2nc3ccccc3n2Cc2ccccc2)nc2ccccc12,inactive,
CCCC(C)NC(=S)NC(=O)c1cc(S(=O)(=O)N2CCOCC2)ccc1C (centres undefined),inactive,
CCOC(=O)/C=C1\SCC(=O)N1CC(=O)N1CCOCC1,"inconclusive: 5.01 µM [activator, single point]",
O=C(NC1CCCC1)C(c1ccco1)N(C(=O)c1csnn1)c1ccccc1 (centres undefined),"inconclusive: 28.2 µM [activator, single point]",
C/C(=N\NC(=O)COc1ccc(C#N)cc1)c1ccccc1OC(F)F,inactive,
CC(C)CSC1=NSC2=NC(=O)/C(=C\c3coc4ccccc4c3=O)C(=N)N12,inactive,
C=CCNC(=O)Nc1ccc(Br)cc1Cl,"inconclusive: 28.2 µM [activator, single point]",
COc1ccc(-c2oc(=O)c3cc(OC)c(OC)cc3c2C#CC2(O)CCCCC2)cc1,inactive,
Cc1ccnc(Nc2nc(-c3ccc(O)c(O)c3)cs2)c1,inactive,
Cc1ccc(C(=O)C(C)OC(=O)c2nc(Cl)ccc2Cl)cc1 (centres undefined),"inconclusive: 3.55 µM [activator, single point]",
CCC1(c2ccc(F)cc2)NC(=O)N(CC(=O)N2c3ccccc3CC2C)C1=O (centres undefined),"inconclusive: 28.2 µM [activator, single point]",
Cc1ccc(-c2nnc3c4ccccc4c(C)nn23)cc1S(=O)(=O)N1CCN(CCO)CC1,inactive,
Cc1cc([N+](=O)[O-])cnc1NC(C)c1ccccc1 (centres undefined),"inconclusive: 2.82 µM [activator, partial curve, poor fit]",
O=C(O)c1cc(-c2ccc(-c3ccc(F)cc3)o2)nc2ccccc12,"inconclusive: 11.2 µM [activator, single point]",

Structure (SMILES),Potency,activation
Cc1ccsc1CN(C)CC(=O)Nc1ccc([N+](=O)[O-])cc1Cl,"inconclusive: 11.2 µM [activator, partial curve, poor fit]",
O=C(NCc1cccnc1)/C(=C/c1ccc(Cl)cc1)NC(=O)c1ccccc1,inactive,
CC1CCCc2sc3nc(N4CCN(CCO)CC4)n4ncnc4c3c21 (centres undefined),inactive,
Cc1cccc(NC(=O)N2CCCC(CNC(=O)c3ccccc3Cl)C2)c1C (centres undefined),"inconclusive: 2.82 µM [activator, single point]",
COc1cc(-c2nc(-c3ccc(NC(=O)c4ccc5c(c4)OCO5)cc3)no2)cc(OC)c1OC,inactive,
COC(=O)c1ccc(CSc2nc3sc(C(=O)O)c(C)c3c(=O)[nH]2)cc1,"inconclusive: 12.6 µM [activator, partial curve, poor fit]",
CCOc1ccccc1/C=N/Nc1nc2c(N)ncnc2n1[C@H]1O[C@@H](CO)[C@H](O)[C@@H]1O,inactive,
O=C(/C=C/c1ccc(S(=O)(=O)N2CCOCC2)cc1)Nc1cc(F)ccc1F,inactive,
Cc1ccc2nc(NC(=O)c3ccc(S(=O)(=O)N4CCCc5ccccc54)cc3)sc2c1,inactive,
c1cnc(Nc2nc(-c3ccc4ccccc4c3)cs2)nc1,"inconclusive: 31.6 µM [activator, partial curve, poor fit]",
CCCC(C(=O)NCc1ccco1)N(Cc1ccco1)C(=O)CNS(=O)(=O)c1ccccc1 (centres undefined),inactive,
CCOC(=O)c1nn(-c2ccc(F)cc2)c(-c2ccccc2)c1C(=O)c1ccccc1,inactive,
Cc1ccccc1NC(=O)NCCCN1CCN(c2ccccc2)CC1,inactive,
Cc1nn(C2CCS(=O)(=O)C2)c(C)c1CN(C)C(=O)c1ccc(Cl)cc1 (centres undefined),"inconclusive: 2.51 µM [activator, single point]",
Cc1ccc(S(=O)(=O)c2cc3cc(Br)ccc3oc2=O)cc1,"inconclusive: 17.8 µM [activator, partial curve, poor fit]",
COCCNC(=S)N(CCc1c(C)[nH]c2ccc(F)cc12)Cc1ccco1,"inconclusive: 12.6 µM [activator, single point]",
Cn1cnc(S(=O)(=O)Nc2cc(-c3ccc(Cl)cc3)nn2C)c1,"inconclusive: 28.2 µM [activator, single point]",
O=C(Nc1ccc(Cl)cc1)N1CCN(Cc2ccc3c(c2)OCO3)CC1,inactive,
COC(=O)CNC(=O)c1c(C)cc(=O)oc1C,"inconclusive: 1.78 µM [activator, partial curve, poor fit]",
COc1ccc(NC(=O)Nc2c(SC)nsc2SC)cc1,inactive,
Fc1cc(F)c2nc(Nc3nc4cc5c(cc4s3)OCO5)sc2c1,inactive,
O=C(c1cc(=O)[nH]c2ccccc12)N1CCN(S(=O)(=O)c2ccc(Cl)cc2)CC1,"inconclusive: 22.4 µM [activator, single point]",
Cc1cccc(N(C)c2cc(C)nc3nc(C)nn23)c1,"inconclusive: 3.55 µM [activator, single point]",
Cc1cc(C)cc(NC(=S)NC(=O)Cc2ccccc2)c1,"inconclusive: 3.98 µM [activator, partial curve, poor fit]",
